# Measured values reported in the supplement of paper PMC3334620.
# In all, about 33,000 sequences were measured (“E-score (-0.5 to 0.5)”: median about -0.0034, highest 2% from about 0.25 on). The list shows a part of the results.
# Biological target: T1, Yap3 (UniProt P38749)
# T1 sequence: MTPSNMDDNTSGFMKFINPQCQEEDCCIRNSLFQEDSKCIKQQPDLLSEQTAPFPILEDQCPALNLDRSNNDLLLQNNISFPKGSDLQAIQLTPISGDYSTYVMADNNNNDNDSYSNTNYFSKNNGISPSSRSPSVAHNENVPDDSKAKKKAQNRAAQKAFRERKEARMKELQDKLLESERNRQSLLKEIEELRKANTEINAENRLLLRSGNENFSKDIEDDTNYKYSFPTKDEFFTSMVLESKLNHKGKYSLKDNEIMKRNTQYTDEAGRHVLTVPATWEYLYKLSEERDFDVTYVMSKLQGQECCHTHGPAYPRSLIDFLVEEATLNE
# Assay: PBM E-score (8-mer binding enrichment) (E-score (-0.5 to 0.5)); higher = stronger / more preferred TF binding
# Details: protein concentration: 100 nM; construct: GST-full length
# Summary of the method: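 Detection of bound protein used fluorescent anti-GST, with scans normalised by masliner. The proteins were GST-tagged yeast transcription factors applied at about 100-200 nM to universal all-10-mer Agilent arrays made double-stranded by primer extension. Each ungapped eight-base word, pooled with its reverse complement, was scored with an E-score from the Universal PBM Analysis Suite.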
row,Sequence,PBM E-score
1,ATTTTAAC,0.149
2,ATTCACCC,0.0908
3,AAGACAGC,-0.0991
4,AGAATCCT,-0.169
5,TAGTGTCA,0.0537
6,AGCTTCAA,0.0127
7,AATAGGAT,0.246
8,CGCTCTCA,-0.121
9,TACGTTGA,0.18
10,CGAGAGAA,0.00535
11,CTCGTTTC,0.0789
12,CGAGGCAC,-0.102
13,CCGTAATA,0.201
14,GGAATTAC,0.235
15,ACTCGTTG,-0.0484
16,AACATGAA,0.0757
17,TGTTCGAA,0.015
18,AGAACTCC,-0.135
19,GAGGTTGC,-0.266
20,GTGGGGTA,0.0417
21,CCCTTCGA,-0.174
22,GAAATCGA,0.163
23,AGGGGCCG,-0.338
24,ATGCATTG,0.0448
25,CCGATAAA,0.119

# A run of entries taken from the entries so far, as a working copy:
row,Sequence,PBM E-score
7,AATAGGAT,0.246
8,CGCTCTCA,-0.121

# Remaining list, next part.

row,Sequence,PBM E-score
1,CACAGACA,0.00063
2,GGGTGATA,0.0239
3,CTCCTAAG,-0.248
4,ACTACACA,0.258
5,ATGAAAAC,0.164
6,TGACAGAA,0.184
7,AACAGGTC,-0.0988
8,CGCGATAA,0.168
9,CAGATGGA,0.127
10,GATATACA,0.187
11,ACTCCGTG,-0.111
12,AGAGTCCG,-0.253
13,ACCTTGTC,-0.159
14,AGAGTTCC,-0.154
15,ATTCCATG,0.0601
16,CGAGGTCC,-0.246
17,AAACCTCT,-0.0453
18,GACCATCC,-0.225
19,AAACTGGG,0.0379
20,CTATGCCC,-0.112
21,ATTACGCA,0.233
22,ATTCTTCC,0.121
23,GCACACCA,-0.111
24,CATCTCCG,0.0946
25,AAGCCACA,-0.00155

# Five entries from above, as tab-separated lines.
row	Sequence	PBM E-score
2	GGGTGATA	0.0239
6	TGACAGAA	0.184
9	CAGATGGA	0.127
22	ATTCTTCC	0.121
23	GCACACCA	-0.111

# Later entries

row,Sequence,PBM E-score
1,CCCACTCC,-0.25
2,CCGCCATA,0.144
3,AACGACCC,-0.106
4,GCACTATA,0.0864
5,ATGTCTGC,-0.0713
6,GTCCATTA,0.213
7,CCCGGAGC,-0.148
8,TCGCGTCA,0.0449
9,AAGACCAT,-0.0181
10,CCGGGACC,-0.311
11,ATGTTTCA,0.0542
12,GAAGGGAC,-0.14
13,AAGCTGAT,0.124
14,CCCCGAAG,-0.0705
15,CCTATAGA,-0.0407
16,CGTATATA,0.145
17,CTCACAAG,0.0207
18,GAGATCAA,0.081
19,GGCTACAC,-0.166
20,AGGACAAG,-0.0693
21,AATTTTCG,0.0612
22,ACAAGTAC,-0.0388
23,CACAGCAC,-0.125
24,AAAGACGA,0.167
25,GGATCGCC,-0.166

row,Sequence,PBM E-score
1,AGGGAGAG,-0.178
2,GACAGGTA,-0.0202
3,GGATCAAA,0.111
4,CATTGAGG,-0.0322
5,AGGTAGGC,-0.125
6,AGCACTAA,0.0886
7,CACGTCGA,-0.00872
8,CCTTGGTA,0.0365
9,GCTTGTAA,0.157
10,CTAAATCC,0.0159
11,ATCCATGG,-0.0629
12,AGTTCTCC,-0.0217
13,AACGCTAA,-0.122
14,CTTTGGTC,0.00396
15,CGGGATTC,0.0799
16,CTAAAAAG,0.119
17,CAGTGTCG,-0.0567
18,GCCAAGGC,-0.327
19,GGCATTGA,-0.0403
20,AAATTCGA,0.0665
21,AGATCGAC,-0.0717
22,TCCACACA,0.0737
23,AATATTTA,0.295
24,ATGCACTG,-0.0349
25,CACGATAG,0.0653

# Quoted at random: 4 records from the list
row,Sequence,PBM E-score
14,GGAATTAC,0.235
7,CCCGGAGC,-0.148
2,GACAGGTA,-0.0202
25,GGATCGCC,-0.166

# Later entries:

row,Sequence,PBM E-score
1,ACACGGTC,-0.101
2,AGTTACAG,0.0982
3,AGCTGGGC,-0.24
4,GCAGTCAA,-0.153
5,GATCATTA,0.136
6,CGAACGCC,-0.157
7,AGCGGAAT,0.0899
8,CCAAATGA,0.124
9,GTCGTAAA,0.0345
10,CCAACACC,-0.221
11,AAAACTCC,-0.0969
12,AAAGTGTG,0.0545
13,CACTACTC,0.0537
14,ATTGGGAG,-0.073
15,TAGCAATA,0.0928
16,ACCAAAGA,0.15
17,CGTATAGC,0.00744
18,AGAACAAT,0.221
19,CAAAGATA,0.0838
20,TACTACCA,-0.122
21,CTCGCCGA,0.0481
22,AGTATAAT,0.293
23,ACGTGTAC,-0.0447
24,AGGCGTTA,-0.0289
25,CAATCCAA,0.0735

row,Sequence,PBM E-score
1,ATCGGATC,-0.0465
2,GCATATCC,-0.0566
3,CGTCCAGA,-0.223
4,GAAGCACC,-0.106
5,ATCTTGCA,0.151
6,CCGGACAC,-0.258
7,GACTACTC,-0.0706
8,CCGTGCAG,-0.0597
9,AATTGCGT,0.0658
10,CATAATAA,0.105
11,AGATACTG,0.0179
12,ACTCTCAC,0.0422
13,AATGACGA,0.164
14,CCTTGTCA,-0.0646
15,AGCGCTCA,-0.151
16,AAATGTGA,0.148
17,CCTGAATA,0.121
18,CACACAGC,-0.0551
19,AATATTGC,0.202
20,AGAGCAGA,0.0395
21,CGCGCACC,-0.0218
22,ATATGTAC,0.137
23,CGAATTCG,-0.0646
24,GAACGCGA,0.136
25,ATAGAAAA,0.217

row,Sequence,PBM E-score
1,AAGCCGCT,0.00103
2,AGACGGAT,0.16
3,CAGAGGCA,-0.0254
4,ACCGTATA,0.042
5,GCTCAAGC,-0.156
6,CACGTGGG,-0.143
7,AGAAAATA,0.208
8,CCCGGTCC,-0.272
9,TTAAGAAA,0.0138
10,AAAAATAA,0.25
11,CCGTAGAA,-0.139
12,ACCGCGAC,0.0742
13,AAGCTTGC,-0.158
14,GGACGCTA,-0.25
15,GGCCCATA,-0.0975
16,ACAGCGAC,-0.129
17,AGGTAGAG,-0.0672
18,CGGCAGTA,0.00023
19,ATTCCCGG,0.161
20,CCTAAGAG,-0.145
21,ACTTGGGC,-0.119
22,AGAGAACC,-0.235
